Source: PubChem BioAssay AID624150 (Cancer Research UK Cambridge, 2012)
Here is one part, drawn at random, of 331 reagents. 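Each arm had three replicate z-scores, but only the first replicate is printed; higher values mean more differentiation marker per cell.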

Test: 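Effect of silencing chromatin genes on per-cell differentiation marker amount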 (primary screen)
Cells: primary human epidermal keratinocytes
Reagents: siRNA pool against human genes, 1-2 µM siRNA in 20 µl nucleofection
Duration: 72 h after transfection plus 48 h differentiation (about 5 days)
Treatment: five arms for 48 h: vehicle, AG1478 10 µM, BMP2/7 200 ng/ml, both together, or 10% serum
Detection: 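Per-cell amount of a differentiation marker read by infrared scanning of the plate, given as a z-score within each plate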
Reading the numbers: z-score, vehicle and z-score, AG1478 10 µM and z-score, BMP2/7 200 ng/ml and z-score, AG1478 with BMP2/7 and z-score, 10% serum: higher = more differentiation marker per cell

Target gene	z-score, vehicle	z-score, AG1478 10 µM	z-score, BMP2/7 200 ng/ml	z-score, AG1478 with BMP2/7	z-score, 10% serum
NPTXR (GeneID 23467)	1.13	0.466	0.734	-0.326	0.248
BRD1 (GeneID 23774)	1.52	1.24	1.14	0.845	0.587
KAT7 (GeneID 11143)	0.0949	0.54	-0.554	0.985	0.169
SMYD4 (GeneID 114826)	0.585	1.66	0.458	1.99	0.54
KMT2A (GeneID 4297)	-0.651	-0.386	-0.678	-0.949	-0.615
SUV39H2 (GeneID 79723)	-0.0678	-0.228	0.31	-0.369	-0.254
TDRD7 (GeneID 23424)	1.09	1.31	-0.404	-1.22	-2.38
HDAC5 (GeneID 10014)	-0.332	0.375	1.02	0.829	0.602
BRD4 (GeneID 23476)	-2.36	-2.51	-2.84	-3.74	-3.28
AIRE (GeneID 326)	0.684	-1.27	-2.51	-2.33	-2.99
SIRT5 (GeneID 23408)	0.537	0.204	-0.667	-0.23	0.121
KAT2B (GeneID 8850)	1.02	-0.845	0.256	-0.372	0.339
HDAC1 (GeneID 3065)	0.348	0.753	1.61	0.00389	0.716

2 entries from above, reformatted:
{"Target gene": "BRD4 (GeneID 23476)", "z-score, vehicle": -2.36, "z-score, AG1478 10 µM": -2.51, "z-score, BMP2/7 200 ng/ml": -2.84, "z-score, AG1478 with BMP2/7": -3.74, "z-score, 10% serum": -3.28}
{"Target gene": "AIRE (GeneID 326)", "z-score, vehicle": 0.684, "z-score, AG1478 10 µM": -1.27, "z-score, BMP2/7 200 ng/ml": -2.51, "z-score, AG1478 with BMP2/7": -2.33, "z-score, 10% serum": -2.99}

More reagents follow:
Target gene	z-score, vehicle	z-score, AG1478 10 µM	z-score, BMP2/7 200 ng/ml	z-score, AG1478 with BMP2/7	z-score, 10% serum
KAT8 (GeneID 84148)	0.401	0.909	0.99	0.507	0.436
ZMYND8 (GeneID 23613)	-0.726	-0.59	0.24	-0.672	-0.141
KDM5A (GeneID 5927)	0.552	-0.362	-0.523	0.475	-0.134
BRPF3 (GeneID 27154)	2.14	1.34	3.22	0.596	0.914
TRIM33 (GeneID 51592)	-0.686	-0.483	-0.751	-0.621	-0.627
TDRD9 (GeneID 122402)	0.865	0.351	0.782	0.148	0.442
PHF21B (GeneID 112885)	-0.295	0.318	-0.619	1.27	0.275
